According to patent publication US20230192894A1:
No constants are given. Whether binding was seen depends on the method and setting. Some binding calls cover weakened binding; strength is not graded here.

What was measured:
[1] = molecular target: mouse monoclonal antibody specific for canine FcεRIα sequence … (SEQ ID NO:2); test: peptide competition, flow cytometry on HMRC mast cells
[2] = molecular target: mouse monoclonal antibody specific for canine FcεRIα sequence … (SEQ ID NO:2); test: peptide competition ELISA against plate-bound canine FcεRIα

- binding [1]: binds
- binding [2]: binds
Binder: CTGNNSLEVDSAVWLHNNT [canine FcεRIα peptide sequence … (SEQ ID NO:2)]
